Reference: article PMC8277845
Results are given in words; binding and its absence hold for the method and conditions named. In cells and extracts the contact can be indirect.

Sequences of proteins named here, by UniProt entry; tags and fusion partners are left off.
UniProt P19474: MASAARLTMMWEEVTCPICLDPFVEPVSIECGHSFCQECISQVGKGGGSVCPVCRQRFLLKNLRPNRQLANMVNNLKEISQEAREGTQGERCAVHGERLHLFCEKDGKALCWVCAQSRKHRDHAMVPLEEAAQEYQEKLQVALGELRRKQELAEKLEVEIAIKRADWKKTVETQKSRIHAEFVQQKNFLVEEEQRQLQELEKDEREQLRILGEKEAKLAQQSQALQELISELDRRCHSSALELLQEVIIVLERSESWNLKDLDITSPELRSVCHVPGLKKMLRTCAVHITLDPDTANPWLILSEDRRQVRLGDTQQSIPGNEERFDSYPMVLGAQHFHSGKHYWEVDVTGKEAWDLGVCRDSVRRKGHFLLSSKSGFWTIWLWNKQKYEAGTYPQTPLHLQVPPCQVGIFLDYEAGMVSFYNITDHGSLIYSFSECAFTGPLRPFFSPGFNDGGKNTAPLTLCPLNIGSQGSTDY
UniProt Q9Y4X5: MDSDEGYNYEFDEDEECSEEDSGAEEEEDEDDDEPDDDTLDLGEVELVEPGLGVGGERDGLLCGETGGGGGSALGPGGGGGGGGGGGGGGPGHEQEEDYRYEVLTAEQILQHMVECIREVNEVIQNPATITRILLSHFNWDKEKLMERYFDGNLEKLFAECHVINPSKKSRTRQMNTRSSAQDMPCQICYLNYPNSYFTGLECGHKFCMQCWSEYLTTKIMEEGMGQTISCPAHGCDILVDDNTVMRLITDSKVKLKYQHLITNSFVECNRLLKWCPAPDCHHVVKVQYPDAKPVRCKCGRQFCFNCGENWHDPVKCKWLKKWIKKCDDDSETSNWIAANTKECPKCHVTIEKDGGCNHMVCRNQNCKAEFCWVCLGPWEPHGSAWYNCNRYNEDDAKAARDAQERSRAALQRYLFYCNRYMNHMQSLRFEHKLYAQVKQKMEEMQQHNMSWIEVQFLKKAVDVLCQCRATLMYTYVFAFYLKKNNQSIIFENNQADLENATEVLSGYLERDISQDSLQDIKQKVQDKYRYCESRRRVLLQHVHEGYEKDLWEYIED
UniProt Q14258: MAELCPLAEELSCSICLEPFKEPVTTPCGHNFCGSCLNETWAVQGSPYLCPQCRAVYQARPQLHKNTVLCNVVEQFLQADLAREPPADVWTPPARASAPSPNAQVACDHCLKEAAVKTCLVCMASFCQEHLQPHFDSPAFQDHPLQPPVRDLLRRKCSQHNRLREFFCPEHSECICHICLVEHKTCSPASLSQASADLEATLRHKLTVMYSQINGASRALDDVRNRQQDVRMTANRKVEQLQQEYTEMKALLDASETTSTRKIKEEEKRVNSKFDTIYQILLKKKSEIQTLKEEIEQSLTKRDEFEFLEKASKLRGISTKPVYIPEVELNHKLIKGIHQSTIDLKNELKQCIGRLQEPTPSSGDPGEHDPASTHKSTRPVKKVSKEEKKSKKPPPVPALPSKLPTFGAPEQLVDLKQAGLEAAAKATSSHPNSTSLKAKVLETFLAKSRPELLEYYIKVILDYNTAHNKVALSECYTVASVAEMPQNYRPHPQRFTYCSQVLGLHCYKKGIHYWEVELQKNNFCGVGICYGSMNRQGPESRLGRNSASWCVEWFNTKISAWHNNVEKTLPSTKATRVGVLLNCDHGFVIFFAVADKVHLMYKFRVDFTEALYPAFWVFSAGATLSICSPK

Biological target: tripartite motif-containing protein 21 (TRIM21), Flag-tagged (UniProt P19474)
Assay: co-IP; TRIM21-Flag co-expressed with HHARI-Myc, EFP-Myc or HERC5-Myc in HEK293 cells; lysates (Western & IP lysis buffer) immunoprecipitated with mouse control IgG or mouse Flag antibodies and protein A/G agarose, 4 h or overnight at 4 °C; blot with rabbit Flag and mouse Myc antibodies

Substance: human homolog of Ariadne (HHARI), Myc-tagged (from UniProt Q9Y4X5 1-557) (enzyme)
- binding: no binding

Substance: estrogen-responsive finger protein (EFP), Myc-tagged (from UniProt Q14258 1-630) (enzyme)
- binding: no binding
